Measurements as given in the supplement of paper PMC12889115.
The list shows a part of the results. Values are raw readings; no control value is given beside them.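 In the initial screen, polymyxin B was used at a concentration that permeabilizes Salmonella's outer membrane but not its inner membrane. Maximum growth was set by DMSO wells with or without polymyxin B. Since plates varied, data were ranked per plate, and compounds giving the lowest OD600 advanced as hits.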

Tested on: Salmonella enterica serovar Typhimurium SL1344
Test: bacterial growth OD600 after 18 h with compound and polymyxin B; higher = more bacterial growth (less inhibition)
Conditions: 50 µM, Mueller-Hinton broth

Row | Compound | bacterial growth OD600 (polymyxin B 1 µg/mL) | bacterial growth OD600 (polymyxin B 0.75 µg/mL)
1 | COc1ccc(-c2noc(CN(C)Cc3ccccc3)n2)c(OC)c1OC | 0.946 | 
2 | COc1ccc(N2C(=O)CN(C(=O)c3ccc(F)cc3F)CC23CCCC3)cc1 |  | 0.777
3 | COCCNC(=O)c1sc2ncnc(NCCc3ccccn3)c2c1C |  | 0.792
4 | CCOC(=O)C1(CC2CC2)CCN(C(=O)CCn2c(C)nc3ccccc32)CC1 |  | 0.787
5 | COCc1ccc(CN2CCCC(CCC(=O)Nc3cc(Cl)ccc3OC)C2)o1 (stereo not given) | 1.13 | 
6 | CCOc1ccccc1CN1CCN(Cc2ccccc2C)CC1CCO (stereo not given) | 1.11 | 
7 | CN(Cc1ccccc1)C(=O)CCc1nnc(CCc2c[nH]c3ccccc23)o1 | 0.81 | 
8 | O=C(c1csc2nc(-c3ccc(C(F)(F)F)cc3)cn12)N1CCN2CCCC2C1 (stereo not given) | 0.751 | 
9 | CCCCn1c(CN2CCCCC2CCc2ccccn2)cnc1S(=O)(=O)CC (stereo not given) | 0.006 | 
10 | O=C(CC(c1ccc(O)cc1)c1ccccc1O)NC1(c2ccccc2)CC1 (stereo not given) | 0.712 | 
11 | O=C(NCc1ccc(Cl)s1)C1CCCN(C2CCN(C(=O)C3CC3)CC2)C1 (stereo not given) |  | 0.788
12 | O=C(c1ccc(OC2CCN(C(=O)C3CC3)CC2)cc1)N1CCC(c2ccncc2)CC1 | 0.936 | 
13 | CCc1[nH]c2c(CNC(=O)CC3CN(C)CCN3C)cc(F)cc2c1C (stereo not given) | 1.01 | 
14 | CN1N=C(C(=O)N2CCCC(CCc3ccccc3)C2)CCC1=O (stereo not given) |  | 0.812
15 | COc1ccc(CC2(CCC(=O)NCc3ccc(C(F)(F)F)cc3)CCC(=O)N2)cc1 (stereo not given) |  | 0.773
16 | CCC1CN(CCNC(=O)/C=C/c2cccs2)Cc2cc(OC)ccc2O1 (stereo not given) |  | 0.87
17 | CN(C(=O)c1csc2nc(-c3ccc(Cl)cc3)cn12)C1CCOCC1 | 1.14 | 
18 | O=C(Nc1cccc(N2CCC(NCc3cnn(Cc4ccccc4)c3)CC2)c1)c1cccnc1 |  | 0.879
19 | O=C(Cc1cccc(F)c1F)N1CCC(C2(c3cccnc3)NC(=O)N(CC3CCCO3)C2=O)CC1 (stereo not given) |  | 0.84
20 | CCOC(=O)C1(Cc2ccc(OC)cc2)CCN(C(=O)COC)CC1 | 0.937 | 

Random excerpt: 2 compounds from above.
Row | Compound | bacterial growth OD600 (polymyxin B 1 µg/mL) | bacterial growth OD600 (polymyxin B 0.75 µg/mL)
19 | O=C(Cc1cccc(F)c1F)N1CCC(C2(c3cccnc3)NC(=O)N(CC3CCCO3)C2=O)CC1 (stereo not given) |  | 0.84
18 | O=C(Nc1cccc(N2CCC(NCc3cnn(Cc4ccccc4)c3)CC2)c1)c1cccnc1 |  | 0.879
